Data source: PubChem BioAssay AID602196 (INSERM, 2012)
In all, the deposit lists about 23,000 reagents; below is a random part of them. Over the whole deposit, 455 (2%) got an active call. 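Active includes both protection and sensitisation; some change values fall well beyond the stated -50 to +50 range.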 Unmarked entries are inactive. Further read-outs or replicates are left out here. The record does not give: the amount of reagent.

- Assay: 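Genes whose knock-down alters cisplatin killing of lung cancer cells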
- System: human A549 lung cancer cells
- Knock-down reagent: siRNA pair against human genes
- Timing: 48 h transfection before cisplatin; time from cisplatin to read-out not stated
- Conditions: cisplatin at a dose killing half of control-siRNA cells; exact dose and duration not given
- Read-out: 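Cisplatin cell death as a shift from the 50% death seen with control siRNA; siRNAs toxic or growth-blocking alone scored 0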
- Scale: two-siRNA summed score (-2 to +2): higher = both siRNAs protect from cisplatin killing; -2 means both sensitise; mean protection from cisplatin (shift in death): higher = protection from cisplatin killing
- Call rule: 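siRNAs harmful alone (LDH or WST-1) get 0; others get +1 for less and -1 for more cisplatin killing; genes are active when the two siRNAs give the same sign, summing to ±2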
- Meaning of the calls: active = both siRNAs shift cisplatin killing the same way; inactive = no consistent shift, or siRNA harmful alone

| gene symbol | two-siRNA summed score (-2 to +2) | mean protection from cisplatin (shift in death) (%) |
| --- | --- | --- |
| RBM15 | 0 | -6.5 |
| ZNF175 | 0 | -1.9 |
| VCAM1 | 1 | -0.5 |
| LOC442726 | 0 | 25.6 |
| TMEM130 | 0 | 5.6 |
| PRPF8 | 0 | -22.4 |
| ZNF750 | 0 | 3.7 |
| CLCN4 | -1 | -16.4 |
| LOC441837 | 0 | 6.2 |
| ARFRP1 | 0 | 6.5 |
| ZNF692 | 0 | 1.9 |
| LOC400768 (retired record) | 1 | 3 |
| MIR17HG | 0 | 4.8 |
| UBXN2A | 0 | 2 |
| AP1G1 | 0 | 1.6 |
| FGF11 | -1 | -8.6 |
| IDH3A | 0 | -7.8 |
| UBR5 | 0 | -34.2 |
| SPINK13 | 0 | 1.1 |
| PSTPIP1 | 0 | 0.7 |
| TEX261 | 0 | -2.1 |
| NRAS | 0 | -2.5 |
| LOC441547 | 1 | 3.7 |
| RAG2 | 1 | 13.8 |
| MRPS26 | 0 | 9.1 |
| TACC3 | 0 | 5.8 |
| TYRP1 | -1 | -12 |
| NFATC2IP | 0 | -0.5 |
| LINC01734 | 0 | 4.4 |
| SHANK1 | 0 | 5.8 |
| CPNE8 | 0 | 3.4 |
| DZIP3 | 0 | -2.2 |
| LOC442154 | 0 | 2.5 |
| LOC285253 | 0 | 3.6 |
| CAMK2G | 0 | -5 |
| MTMR12 | 0 | -0.3 |
| LOC442508 | 1 | 9.9 |
| TEKTL1 | 1 | 11.9 |
| MKRN3 | 0 | -4.2 |

Only “two-siRNA summed score (-2 to +2)” (5 entries from above):
AP1G1	0
FGF11	-1
IDH3A	0
UBR5	0
SPINK13	0
